Laboratory results from PubChem BioAssay AID2685 (National Center for Advancing Translational Sciences (NCATS), 2010).
The campaign covered roughly 320,000 compounds. About 2,100 (0.66%) were called active. The shares of active, inactive and inconclusive entries below differ from those in the screen. Calls come from the whole dose curve; as a rule, active = well fitted inhibition curve with a large enough effect in the signal ratio, with a control signal flat (not every such curve was filed as active); inconclusive = small, poorly fitted or top-dose-only effect, or effect the other way, or a change in a side signal; inactive = flat fitted curve, though single readings scatter; the % refers to the signal ratio. Potencies of inconclusive entries are doubtful fits and often do not repeat.

test: qHTS Assay for Lipid Storage Modulators in Drosophila S3 Cells; conditions: BODIPY lipid droplet fluorescence, 18-24 h, cells fed with added oleic acid; lipid storage change, negative = inhibition: at 46.1 µM (top of the series) unless noted
In short: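 Drosophila S3 cells loaded with oleic acid (400 uM, as added) and compounds at several concentrations; lipid droplets imaged by 488-nm laser-scanning cytometry, 500–530 nm intensity and object ratio to cell channel. Percent activity normalized to 20 uM Triacsin C.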
% is set by controls: 0 for no effect and ±100 for the full control effect; potency is the fitted concentration of half-maximal effect.

| Structure (SMILES) | lipid storage change, negative = inhibition | Potency |
| --- | --- | --- |
| CCOC(=O)C1C(=O)C=C(c2ccc([N+](=O)[O-])cc2)CC1c1ccccc1 (configuration not stated) | inconclusive: 3.38% | – |
| COC(=O)c1ccccc1NC(=O)Cn1cc(Br)cn1 | inconclusive: 1.58% | – |
| N#C/C(=C\c1c(F)cccc1Cl)S(=O)(=O)c1ccccn1 | inconclusive: -16.9% | – |
| CCCCOc1ccc(N(CC(=O)NC(C)(C)CC)C(=O)CCC(=O)Nc2ccccn2)cc1 | inconclusive: -12.3% | – |
| COc1ccc(NC(=O)c2ccc(S(=O)(=O)N(C)C)cc2)cc1OC | inconclusive: 46.3% | – |
| Nc1ccc(S(=O)(=O)Nc2nccc(/C=C/c3ccc([N+](=O)[O-])cc3)n2)cc1 | inconclusive: -23.1% | – |
| Cc1ccccc1CSc1nc2c(c(=O)[nH]1)CCCC2 | inconclusive: 29.2% | – |
| COc1ccccc1N1CCN(C2CCCN(C(=O)c3snnc3C)C2)CC1 (configuration not stated) | – | inconclusive: 3.26 µM [activator, full curve] |
| COc1ccc(CCn2c(=N)c(S(=O)(=O)c3ccccc3)cc3c(=O)n4ccccc4nc32)cc1 | inconclusive: 12.2% | – |
| COc1ccccc1N1CCN(C(=O)c2cc(-c3ccc(F)cc3)on2)CC1 | inconclusive: 216% | – |
| Cc1cc(Br)ccc1NC(=O)CN(C)C(=O)Cn1c(=O)cnc2ccccc21 | inconclusive: -21% | – |
| CCc1cc2c(=O)n(-c3ccccc3)c(SCC(N)=O)nc2s1 | inconclusive: -18.8% | – |
| CS(=O)(=O)N1CCN(c2ccc(C(=O)N3CCOCC3)cc2[N+](=O)[O-])CC1 | inactive: 0.674% | – |
| CC(=O)NNC(=O)c1[nH]c2ccc(Br)cc2c1-c1ccccc1 | inconclusive: 12% | – |
| N#Cc1c2c(c(-c3ccccc3)[nH]c1=O)CCCC2 | – | inconclusive: 13 µM [falling, partial curve, poor fit] |
| CCC1(c2ccccc2)NC(=O)N(CC(=O)NCC2COc3ccccc3O2)C1=O (configuration not stated) | inconclusive | – |
| COc1cc(-c2noc(CCC(N)=O)n2)cc(OC)c1OC | inconclusive: 43.7% | – |
| CCN1C(=O)c2cccc3c(S(=O)(=O)NCC4CCCO4)ccc1c23 (configuration not stated) | inconclusive: 8.65% | – |
| CC(=O)Nc1cccc(NC(=O)c2cccc(-c3ccc(O)cc3)c2)c1 | inconclusive: -47% | – |
| COc1ccc(-c2nsc(SCC(=O)Nc3ccc4c(c3)OCO4)n2)cc1 | inconclusive: 28.8% | – |
| Cc1ccccc1C(=O)NNc1ccc([N+](=O)[O-])cc1 | inconclusive: 4.18% | – |
| CCOc1ccc(S(=O)(=O)NCCC(=O)OCC(=O)N2CC(=O)Nc3ccccc32)cc1 | inconclusive: -24.8% | – |
| CC1=NN(C(C#N)c2ccccc2)C(c2ccccc2)C1 (configuration not stated) | – | inconclusive: 3.26 µM [activator, single point] |
| Cc1ccc(CNc2ccc(N3C(=O)CCCC3=O)cc2[N+](=O)[O-])cc1 | – | inconclusive: 14.6 µM [activator, single point] |
| O=C(NNS(=O)(=O)c1ccccc1F)c1cccc(S(=O)(=O)N2CCOCC2)c1 | inconclusive: 13.4% | – |
| Cc1onc(C(=O)N2CCN(C(c3ccccc3)c3ccccc3)CC2)c1[N+](=O)[O-] | inactive: 3.34% | – |

2 entries from above, reformatted:
CS(=O)(=O)N1CCN(c2ccc(C(=O)N3CCOCC3)cc2[N+](=O)[O-])CC1
  lipid storage change, negative = inhibition: inactive: 0.674%
CCN1C(=O)c2cccc3c(S(=O)(=O)NCC4CCCO4)ccc1c23 (configuration not stated)
  lipid storage change, negative = inhibition: inconclusive: 8.65%

(listing goes on)

| Structure (SMILES) | lipid storage change, negative = inhibition | Potency |
| --- | --- | --- |
| COc1ccc(C(=O)OCC(N)=O)cc1[N+](=O)[O-] | inconclusive: 18.7% | – |
| O=C(CN1CCN(c2cccc(Cl)c2)CC1)c1ccc(O)cc1O | inconclusive: -24.3% | – |
| CC(=O)N1CCN(S(=O)(=O)c2cccc(C(=O)NC3CC3)c2)CC1 | inconclusive: 7.03% | – |
| O=C(O)c1c(-c2ccc(Cl)cc2)cn2ccccc12 | inconclusive: 11.9% | – |
| CCCSc1ccc([C@@H]2[C@H]3C(=O)N(CC)C(=O)[C@H]3[C@]3(C(=O)OC)CCCN23)cc1OC | inactive: 14.4% | – |
| CC(=O)Nc1ccc(Oc2cc(C#N)c(C#N)cc2N2CCCCCC2)cc1 | – | inconclusive: 20.6 µM [falling, single point] |
| O=C(O)C1SCCN1S(=O)(=O)c1ccc(N=NN2CCOCC2)cc1 (configuration not stated) | inconclusive: -15.2% | – |
| COc1ccc(NC(=O)C(Cl)=C(Cl)Cl)cn1 | – | inconclusive: 0.461 µM [falling, full curve] |
| O=C(NCC(c1cccs1)N1CCOCC1)c1ccc(Cl)cc1 (configuration not stated) | inconclusive | – |
| CCOC(=O)CNCCC(=O)c1ccc(Br)cc1 | inconclusive: -14.2% | – |
| C=CCn1c(SCC(=O)c2ccc(Cl)cc2)nnc1-c1ccc2c(c1)OCO2 | inconclusive: 16.5% | – |
| CC1CCN(C(=O)CSc2nc3cccnc3n2C)CC1 | inconclusive: 24.5% | – |
| COc1ccc(CCN2C(=NC(=O)CC(C)C)SC3CS(=O)(=O)CC32)cc1OC (configuration not stated) | inconclusive: 12.8% | – |
| CCOC(=O)Cc1csc(NC(=O)Nc2cccs2)n1 | inconclusive: -4.53% | – |
| COc1cccc(C(=O)NOCc2ccc(C)cc2)c1OC | – | inconclusive: 10.3 µM [activator, single point] |
| Cn1c(=O)c2c(nc(CN3CCN(c4ccccc4)CC3)n2Cc2ccccc2F)n(C)c1=O | – | inconclusive: 29.1 µM [activator, single point] |
| Cc1ccnc(N2C(=O)c3ccccc3C2Nc2ccc3c(c2)OCCO3)c1 (configuration not stated) | – | inconclusive: 25.9 µM [falling, single point] |
| C/C(=N\NS(=O)(=O)c1ccc(Br)cc1)c1ccc2c(c1)OCO2 | – | inconclusive: 29.1 µM [activator, single point] |
| Cc1ccc(S(=O)(=O)N(C)C)cc1NC(=O)COC(=O)c1ccc2ccccc2n1 | – | inconclusive: 29.1 µM [falling, single point] |
| O=C(NNC1=NCCC1)C1CC1 | inconclusive: 21.7% | – |
| COc1cc([N+](=O)[O-])ccc1NC(=O)COC(=O)c1ccc(NC(N)=O)cc1 | inconclusive: 14.7% | – |
| COc1ccc(OC)c(C2=NOC(C(=O)Nc3cc(C)nn3-c3ccccc3)C2)c1 (configuration not stated) | inconclusive: 10.9% | – |
| CN(CC(=O)Nc1ccc(Cl)c(Cl)c1)CC(=O)Nc1ccc2c(c1)OCO2 | inconclusive: 45% | – |
| COc1ccc(Cl)cc1NC(=O)CN(C)C(=O)c1ccc(C)s1 | inconclusive: -6.86% | – |
| Cc1cccc(-c2nsc(SCC(=O)N3CCCC3)n2)c1 | – | inconclusive: 0.0046 µM [falling, full curve, poor fit] |
| COc1cccc(CNCc2cccc(Br)c2)c1OC | inconclusive: 8.48% | – |

Entries of single compounds, quoted from the list. Values in the order: lipid storage change, negative = inhibition	Potency
`COc1cccc(C(=O)NOCc2ccc(C)cc2)c1OC` reads –	inconclusive: 10.3 µM [activator, single point]
`CCOC(=O)C1C(=O)C=C(c2ccc([N+](=O)[O-])cc2)CC1c1ccccc1` (configuration not stated) reads inconclusive: 3.38%	–
`CCN1C(=O)c2cccc3c(S(=O)(=O)NCC4CCCO4)ccc1c23` (configuration not stated) reads inconclusive: 8.65%	–
`CCc1cc2c(=O)n(-c3ccccc3)c(SCC(N)=O)nc2s1` reads inconclusive: -18.8%	–

(cont.)

| Structure (SMILES) | lipid storage change, negative = inhibition | Potency |
| --- | --- | --- |
| COc1ccc(-c2csc(NC(=O)CSc3nnc(Nc4ccccc4C)s3)n2)cc1 | inconclusive: -5.96% | – |
| Cc1ncc(S(=O)(=O)c2ccccc2)c(-c2ccccc2)n1 | – | inconclusive: 0.651 µM [falling, partial curve, poor fit] |
| Cc1cccc(CSCCNC(=O)CSCc2ccc([N+](=O)[O-])cc2)c1 | – | active: 14.6 µM |
| COc1ccc(NS(=O)(=O)c2ccc(N3CCOCC3)c(NC(=O)c3ccc(F)cc3)c2)cc1 | inconclusive: -12.6% | – |
| O=C(O)CCN1CCc2ccccc2C1c1ccncc1 (configuration not stated) | inconclusive: 22% | – |
| O=C(CC1S/C(=N/N=C/c2cccs2)NC1=O)Nc1ccccc1F (configuration not stated) | – | inconclusive: 6.51 µM [falling, partial curve, poor fit] |
| Clc1ccc(-c2nnc(NCCN3CCCC3)c3ccccc23)cc1 | inconclusive: 11.6% | – |
| CC1CCCN(c2ccc(C(=O)Nc3ccc4c(c3)OCO4)cc2[N+](=O)[O-])C1 (configuration not stated) | – | inconclusive: 0.82 µM [activator, full curve, poor fit] |
| COc1ccc(-c2nnn(CC(=O)N(CC(=O)NC3CCCC3)Cc3cccs3)n2)cc1OC | – | inconclusive: 7.31 µM [activator, partial curve] |
| Cc1ccc(NC(=O)CN2C(=O)NC(C)(C)C2=O)cc1S(=O)(=O)N1CCCCCC1 | inconclusive | – |
| CCCC(=O)NC(=S)Nc1cccc(Cl)c1N1CCCC1 | – | inconclusive: 4.11 µM [falling, single point] |
| Cc1cc(NC(=O)CN2C(=O)c3ccccc3C2=O)no1 | – | inconclusive: 0.517 µM [falling, single point] |
| O=C(c1ccc(-c2ccccc2)cc1)N1CCN(c2ccccc2)CC1 | inconclusive: 14.3% | – |
| COc1ccc(-n2cc(C(=O)c3cc4ccccc4oc3=O)c(C(C)=O)n2)cc1 | inconclusive: 88% | – |
| CN(C(=O)CC(=O)Nc1ccc(Cl)c(Cl)c1)c1ccccc1 | inconclusive: 12.8% | – |
| Cc1ccc(C(=O)NCCNC(=O)c2ccccn2)cc1 | – | inconclusive: 29.1 µM [falling, single point] |
| Cc1cc(C(F)F)n2nc(C(=O)Nc3cccnc3Cl)nc2n1 | inconclusive: -9.55% | – |
| CCOCCCNC(=S)NNC(=O)CCn1nc(C)c(Br)c1C | – | inconclusive: 6.51 µM [rising, single point] |
| Cc1cc(C(=O)COC(=O)CCCN2C(=O)c3ccccc3C2=O)c(C)n1C | – | inconclusive: 1.46 µM [activator, partial curve, poor fit] |
| CCC(OC(=O)c1ccco1)C(=O)NC1CCCC1 (configuration not stated) | – | inconclusive: 29.1 µM [activator, single point] |
| CCn1cc(C(=O)NN)c(=O)c2cc(F)c(N3CCN(C)CC3)cc21 | inconclusive: 381% | – |
| C/C(=N\NC(=O)CSc1nc2nc(C)cc(C)n2n1)c1ccccc1 | – | inconclusive: 0.326 µM [activator, full curve] |
| COc1ccc(OCCCC(=O)Nc2ccc(N3CCOCC3)cc2)cc1 | – | inconclusive: 29.1 µM [activator, single point] |
| O=[N+]([O-])c1ccc(S(=O)(=O)NCC(c2cccnc2)N2CCOCC2)cc1 (configuration not stated) | inconclusive: 4.29% | – |
| C/C(=C\c1ccccc1)C(=O)Nc1nc2ccc([N+](=O)[O-])cc2s1 | inconclusive: -28.9% | – |
